Measurements: PMC7850899, “Nutrient transceptors physically interact with the yeast S6/protein kinase B homolog, Sch9, a TOR kinase target” (Biochemical Journal, 2021)
These are yes or no findings as the source states them, for the method shown. In cells and extracts the contact can be indirect. Some results given as binding are weak or reduced against the parent protein; the word gives no strength. Tags and fused reporters may be left off the sequences shown.

B1: HA-tagged Gap1^F233D (protein, UniProt P19145 1-602)
chain: MSNTSSYEKNNPDNLKHNGITIDSEFLTQEPITIPSNGSAVSIDETGSGSKWQDFKDSFKRVKPIEVDPNLSEAEKVAIITAQTPLKHHLKNRHLQMIAIGGAIGTGLLVGSGTALRTGGPASLLIGWGSTGTMIYAMVMALGELAVIFPISGGFTTYATRFIDESFGYANNFNYMLQWLVVLPLEIVSASITVNFWGTDPKYRDGFVALFWLAIVIINMFGVKGYGEAEFVDSFIKVITVVGFIILGIILNCGGGPTGGYIGGKYWHDPGAFAGDTPGAKFKGVCSVFVTAAFSFAGSELVGLAASESVEPRKSVPKAAKQVFWRITLFYILSLLMIGLLVPYNDKSLIGASSVDAAASPFVIAIKTHGIKGLPSVVNVVILIAVLSVGNSAIYACSRTMVALAEQRFLPEIFSYVDRKGRPLVGIAVTSAFGLIAFVAASKKEGEVFNWLLALSGLSSLFTWGGICICHIRFRKALAAQGRGLDELSFKSPTGVWGSYWGLFMVIIMFIAQFYVAVFPVGDSPSAEGFFEAYLSFPLVMVMYIGHKIYKRNWKLFIPAEKMDIDTGRREVDLDLLKQEIAEEKAIMATKPRWYRIWNFWC
B2: HA-tagged Gap1^S234E (protein, UniProt P19145 1-602)
chain: MSNTSSYEKNNPDNLKHNGITIDSEFLTQEPITIPSNGSAVSIDETGSGSKWQDFKDSFKRVKPIEVDPNLSEAEKVAIITAQTPLKHHLKNRHLQMIAIGGAIGTGLLVGSGTALRTGGPASLLIGWGSTGTMIYAMVMALGELAVIFPISGGFTTYATRFIDESFGYANNFNYMLQWLVVLPLEIVSASITVNFWGTDPKYRDGFVALFWLAIVIINMFGVKGYGEAEFVFEFIKVITVVGFIILGIILNCGGGPTGGYIGGKYWHDPGAFAGDTPGAKFKGVCSVFVTAAFSFAGSELVGLAASESVEPRKSVPKAAKQVFWRITLFYILSLLMIGLLVPYNDKSLIGASSVDAAASPFVIAIKTHGIKGLPSVVNVVILIAVLSVGNSAIYACSRTMVALAEQRFLPEIFSYVDRKGRPLVGIAVTSAFGLIAFVAASKKEGEVFNWLLALSGLSSLFTWGGICICHIRFRKALAAQGRGLDELSFKSPTGVWGSYWGLFMVIIMFIAQFYVAVFPVGDSPSAEGFFEAYLSFPLVMVMYIGHKIYKRNWKLFIPAEKMDIDTGRREVDLDLLKQEIAEEKAIMATKPRWYRIWNFWC
B3: HA-tagged wild type Gap1 (HA-Gap1) (protein, UniProt P19145 1-602)
chain: MSNTSSYEKNNPDNLKHNGITIDSEFLTQEPITIPSNGSAVSIDETGSGSKWQDFKDSFKRVKPIEVDPNLSEAEKVAIITAQTPLKHHLKNRHLQMIAIGGAIGTGLLVGSGTALRTGGPASLLIGWGSTGTMIYAMVMALGELAVIFPISGGFTTYATRFIDESFGYANNFNYMLQWLVVLPLEIVSASITVNFWGTDPKYRDGFVALFWLAIVIINMFGVKGYGEAEFVFSFIKVITVVGFIILGIILNCGGGPTGGYIGGKYWHDPGAFAGDTPGAKFKGVCSVFVTAAFSFAGSELVGLAASESVEPRKSVPKAAKQVFWRITLFYILSLLMIGLLVPYNDKSLIGASSVDAAASPFVIAIKTHGIKGLPSVVNVVILIAVLSVGNSAIYACSRTMVALAEQRFLPEIFSYVDRKGRPLVGIAVTSAFGLIAFVAASKKEGEVFNWLLALSGLSSLFTWGGICICHIRFRKALAAQGRGLDELSFKSPTGVWGSYWGLFMVIIMFIAQFYVAVFPVGDSPSAEGFFEAYLSFPLVMVMYIGHKIYKRNWKLFIPAEKMDIDTGRREVDLDLLKQEIAEEKAIMATKPRWYRIWNFWC
B4: HA-tagged Gap1^FVF-DKD (protein, UniProt P19145 1-602)
chain: MSNTSSYEKNNPDNLKHNGITIDSEFLTQEPITIPSNGSAVSIDETGSGSKWQDFKDSFKRVKPIEVDPNLSEAEKVAIITAQTPLKHHLKNRHLQMIAIGGAIGTGLLVGSGTALRTGGPASLLIGWGSTGTMIYAMVMALGELAVIFPISGGFTTYATRFIDESFGYANNFNYMLQWLVVLPLEIVSASITVNFWGTDPKYRDGFVALFWLAIVIINMFGVKGYGEAEDKDSFIKVITVVGFIILGIILNCGGGPTGGYIGGKYWHDPGAFAGDTPGAKFKGVCSVFVTAAFSFAGSELVGLAASESVEPRKSVPKAAKQVFWRITLFYILSLLMIGLLVPYNDKSLIGASSVDAAASPFVIAIKTHGIKGLPSVVNVVILIAVLSVGNSAIYACSRTMVALAEQRFLPEIFSYVDRKGRPLVGIAVTSAFGLIAFVAASKKEGEVFNWLLALSGLSSLFTWGGICICHIRFRKALAAQGRGLDELSFKSPTGVWGSYWGLFMVIIMFIAQFYVAVFPVGDSPSAEGFFEAYLSFPLVMVMYIGHKIYKRNWKLFIPAEKMDIDTGRREVDLDLLKQEIAEEKAIMATKPRWYRIWNFWC
B5: HA-tagged Gap1^F231D (protein, UniProt P19145 1-602)
chain: MSNTSSYEKNNPDNLKHNGITIDSEFLTQEPITIPSNGSAVSIDETGSGSKWQDFKDSFKRVKPIEVDPNLSEAEKVAIITAQTPLKHHLKNRHLQMIAIGGAIGTGLLVGSGTALRTGGPASLLIGWGSTGTMIYAMVMALGELAVIFPISGGFTTYATRFIDESFGYANNFNYMLQWLVVLPLEIVSASITVNFWGTDPKYRDGFVALFWLAIVIINMFGVKGYGEAEDVFSFIKVITVVGFIILGIILNCGGGPTGGYIGGKYWHDPGAFAGDTPGAKFKGVCSVFVTAAFSFAGSELVGLAASESVEPRKSVPKAAKQVFWRITLFYILSLLMIGLLVPYNDKSLIGASSVDAAASPFVIAIKTHGIKGLPSVVNVVILIAVLSVGNSAIYACSRTMVALAEQRFLPEIFSYVDRKGRPLVGIAVTSAFGLIAFVAASKKEGEVFNWLLALSGLSSLFTWGGICICHIRFRKALAAQGRGLDELSFKSPTGVWGSYWGLFMVIIMFIAQFYVAVFPVGDSPSAEGFFEAYLSFPLVMVMYIGHKIYKRNWKLFIPAEKMDIDTGRREVDLDLLKQEIAEEKAIMATKPRWYRIWNFWC
B6: HA-tagged Gap1^V232K (protein, UniProt P19145 1-602)
chain: MSNTSSYEKNNPDNLKHNGITIDSEFLTQEPITIPSNGSAVSIDETGSGSKWQDFKDSFKRVKPIEVDPNLSEAEKVAIITAQTPLKHHLKNRHLQMIAIGGAIGTGLLVGSGTALRTGGPASLLIGWGSTGTMIYAMVMALGELAVIFPISGGFTTYATRFIDESFGYANNFNYMLQWLVVLPLEIVSASITVNFWGTDPKYRDGFVALFWLAIVIINMFGVKGYGEAEFKFSFIKVITVVGFIILGIILNCGGGPTGGYIGGKYWHDPGAFAGDTPGAKFKGVCSVFVTAAFSFAGSELVGLAASESVEPRKSVPKAAKQVFWRITLFYILSLLMIGLLVPYNDKSLIGASSVDAAASPFVIAIKTHGIKGLPSVVNVVILIAVLSVGNSAIYACSRTMVALAEQRFLPEIFSYVDRKGRPLVGIAVTSAFGLIAFVAASKKEGEVFNWLLALSGLSSLFTWGGICICHIRFRKALAAQGRGLDELSFKSPTGVWGSYWGLFMVIIMFIAQFYVAVFPVGDSPSAEGFFEAYLSFPLVMVMYIGHKIYKRNWKLFIPAEKMDIDTGRREVDLDLLKQEIAEEKAIMATKPRWYRIWNFWC

molecular target: T1, GST-tagged Sch9 (GST-Sch9) (S. cerevisiae) (UniProt P11792); assay: pull-down; GST-tagged protein from E. coli on glutathione sepharose beads, mixed with pre-cleared lysate of 24 h nitrogen-starved yeast with HA-Gap1, 2 h in the cold room, washed 3 times with PBS-T; Western blot with anti-HA-peroxidase; only the target purified
T1 sequence: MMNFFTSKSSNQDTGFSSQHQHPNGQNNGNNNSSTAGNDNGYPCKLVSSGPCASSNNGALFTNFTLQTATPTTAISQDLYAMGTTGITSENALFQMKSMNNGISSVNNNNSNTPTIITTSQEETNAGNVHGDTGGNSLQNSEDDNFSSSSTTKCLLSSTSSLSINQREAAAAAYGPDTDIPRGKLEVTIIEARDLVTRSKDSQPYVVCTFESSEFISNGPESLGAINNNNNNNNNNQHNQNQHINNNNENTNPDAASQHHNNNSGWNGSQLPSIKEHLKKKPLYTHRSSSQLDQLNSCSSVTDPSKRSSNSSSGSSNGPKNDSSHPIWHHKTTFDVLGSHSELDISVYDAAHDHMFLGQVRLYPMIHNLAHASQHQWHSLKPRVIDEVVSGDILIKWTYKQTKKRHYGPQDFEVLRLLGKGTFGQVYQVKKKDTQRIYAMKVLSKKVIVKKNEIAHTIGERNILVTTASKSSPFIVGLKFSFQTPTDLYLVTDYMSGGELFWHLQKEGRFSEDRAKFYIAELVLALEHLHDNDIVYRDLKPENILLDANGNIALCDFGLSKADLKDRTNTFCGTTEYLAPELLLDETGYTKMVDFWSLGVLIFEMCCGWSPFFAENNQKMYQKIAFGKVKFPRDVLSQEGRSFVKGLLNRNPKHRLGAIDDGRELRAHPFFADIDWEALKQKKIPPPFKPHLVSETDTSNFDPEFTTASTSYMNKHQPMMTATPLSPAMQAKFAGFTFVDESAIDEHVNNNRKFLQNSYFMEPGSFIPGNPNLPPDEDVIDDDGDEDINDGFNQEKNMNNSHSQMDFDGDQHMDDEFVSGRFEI

binding, binds:
B1, B2, B3, B4, B5, B6
